Reference: the supplement of paper PMC3334620
Over roughly 33,000 sequences, “E-score (-0.5 to 0.5)” has its median near -0.016; the highest 2% begin near 0.3. The list shows a part of the results.

Target: T1, Yer184c (UniProt P39961)
T1 sequence: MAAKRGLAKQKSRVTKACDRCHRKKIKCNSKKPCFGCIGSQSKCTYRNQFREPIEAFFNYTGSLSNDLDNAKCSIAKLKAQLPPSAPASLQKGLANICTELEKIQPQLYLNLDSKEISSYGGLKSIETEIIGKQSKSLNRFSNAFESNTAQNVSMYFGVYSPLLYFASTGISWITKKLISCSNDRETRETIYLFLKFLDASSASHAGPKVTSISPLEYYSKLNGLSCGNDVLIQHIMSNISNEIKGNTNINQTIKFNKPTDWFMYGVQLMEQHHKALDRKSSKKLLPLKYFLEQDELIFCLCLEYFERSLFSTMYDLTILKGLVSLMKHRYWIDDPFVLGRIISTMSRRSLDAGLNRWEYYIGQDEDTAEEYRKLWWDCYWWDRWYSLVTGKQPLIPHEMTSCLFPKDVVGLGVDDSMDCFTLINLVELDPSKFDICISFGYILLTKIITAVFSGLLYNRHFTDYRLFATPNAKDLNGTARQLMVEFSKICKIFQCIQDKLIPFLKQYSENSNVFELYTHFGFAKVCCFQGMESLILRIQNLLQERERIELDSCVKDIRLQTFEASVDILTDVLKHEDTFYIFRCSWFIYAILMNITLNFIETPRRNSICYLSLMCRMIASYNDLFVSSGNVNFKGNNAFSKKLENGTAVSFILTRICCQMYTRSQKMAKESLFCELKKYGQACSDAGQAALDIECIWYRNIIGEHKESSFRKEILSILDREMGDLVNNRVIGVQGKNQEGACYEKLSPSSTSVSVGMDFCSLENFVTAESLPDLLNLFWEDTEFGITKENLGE
Assay: PBM E-score (8-mer binding enrichment) (E-score (-0.5 to 0.5)); higher = stronger / more preferred TF binding
Conditions: protein concentration: 100 nM; construct: GST-full length
Summary of the method: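 Detection of bound protein used fluorescent anti-GST, with scans normalised by masliner. The proteins were GST-tagged yeast transcription factors applied at about 100-200 nM to universal all-10-mer Agilent arrays made double-stranded by primer extension. Each ungapped eight-base word, pooled with its reverse complement, was scored with an E-score from the Universal PBM Analysis Suite.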

Sequence | PBM E-score
AAGCCATC | 0.0823
ATTAGTTA | 0.222
CAGCCGAC | 0.0296
TCCTTAGA | -0.109
CACGTCCA | -0.284
AGACCTGA | 0.0577
AAACAGAA | 0.113
CCTCACTA | -0.0343
ATCGGCCC | 0.113
TATTAGGA | 0.0723
CGGCGTAA | 0.239
CTCATACA | -0.0372
AATTCCAA | 0.116
CTTCCAGA | -0.111
AGGATCCC | -0.0989
GCTCCTAA | -0.223
GGGATAAA | 0.195
ACACGCAG | -0.174
GGTCAAAC | 0.122
CCCTCGCA | -0.13
GCTCAGAA | -0.00346
GTCGGAAC | 0.217
GCAACTGA | 0.0317
ACTTTAAG | 0.0617
CCTTTTGC | -0.0697

Sequence | PBM E-score
ACGCCTGC | -0.225
GCATCCGC | -0.113
AGGCCTTC | -0.0978
CGACCTTC | 0.0407
ACCTGAGT | -0.015
AGATACAG | 0.0838
GATCTCGA | 0.115
ACTGGCAG | -0.0376
GCATGTGA | -0.00717
GACATGCA | -0.147
ATGGGTCG | -0.091
GTCGCATA | 0.029
CGACAGCA | -0.122
AACTGACG | -0.19
CCGTTCGC | 0.0549
CCGCAGCC | -0.112
AGTTGAAG | -0.101
CACATAAC | -0.0415
ACACCCTA | -0.148
AAGCAACC | -0.0853
GGTTACTA | -0.0923
AACACATC | 0.0583
ATCCGACG | 0.155
AGAGCGCT | -0.202
GGACGGTA | 0.0645

Sequence | PBM E-score
AGGACGAT | -0.101
AGGAACCG | 0.179
CACGCGAC | -0.154
CGCGCATA | -0.208
ATCGGAAT | 0.379
CCTCTGGA | -0.128
ACATAAGG | 0.0838
GCCTGTCA | -0.166
CCGCACGC | -0.0986
ACCTTACA | -0.108
CCCTTGTC | -0.0796
ATAGTGCC | -0.0149
GGAGATAA | 0.146
ACGTAAAA | 0.125
GCGACGAA | 0.0717
CCTTTAAA | -0.012
AAGCAATG | 0.0554
TAAGGCTA | -0.0917
AAGAGATT | 0.107
CGCTCGCC | 0.00476
AGTCTCCA | -0.178
CTCCGCGA | 0.0959
GCTCAAGA | -0.177
CTGTATTC | 0.13
GGTGTGTA | -0.226

Shown in markdown: entries from further up

| Sequence | PBM E-score |
| --- | --- |
| CCTTTAAA | -0.012 |
| AAGCAATG | 0.0554 |
| TAAGGCTA | -0.0917 |
| AAGAGATT | 0.107 |

(further entries)

Sequence | PBM E-score
CCGAATCC | 0.322
CCGATGAG | 0.0404
CCATTGCC | -0.0282
ACCATGAT | -0.154
GGGTAGAC | -0.181
CGGCCAAG | 0.0915
CTAGTCAA | -0.126
TTGGCAAA | 0.106
CTCTTGCA | -0.112
TAATGGCA | -0.0628
ACCTTGAC | -0.0709
ACATCCTC | -0.0455
ATCTCACC | 0.147
ATTTAAAC | 0.0959
CTCCTTAA | -0.0623
GGCTGGAC | -0.113
AGTCACTG | -0.142
ATATGTCG | 0.106
ACGAACTC | 0.155
TAACCTTA | -0.0841
AATATACA | 0.154
GGTGGTGA | -0.179
CGTGTTCA | 0.0708
ACGCTAAT | -0.00879
CAGGACGG | -0.134

Four entries from above, with tabs:
Sequence	PBM E-score
ACCATGAT	-0.154
GGGTAGAC	-0.181
CGGCCAAG	0.0915
CTAGTCAA	-0.126

Additional records

Sequence | PBM E-score
ACAGTGCT | 0.0435
ATCTCAAT | 0.00748
CTTATATC | 0.149
CCTAATCA | 0.126
AGATCCCC | -0.22
AGGATAGA | 0.0167
CTCTTAAA | 0.196
AGTCTCGG | 0.112
ATGGCATA | 0.00654
AGCCCATG | -0.197
AGTCCCCC | -0.483
AGAAGAAT | -0.0953
CACTCACC | -0.119
AAGGCTCT | -0.175
ATGTCCCC | -0.156
ATTACTTC | 0.0107
CCTTTGGA | -0.212
AAAGCGCC | 0.0412
CGTTCCTA | 0.0583
AGATAATA | 0.0739
AAATGAAT | -0.0153
AGAGAAAT | -0.0135
AAACGTGG | -0.273
GAGGTGCA | -0.0348
CGACTATA | -0.0728

Reprinted at random: 2 records from the list, in no set order.
Sequence | PBM E-score
AGTCCCCC | -0.483
CGACTATA | -0.0728

(continued)

Sequence | PBM E-score
CTATCCAC | 0.0314
AGCCCTAA | 0.0169
ACACACGA | -0.0975
ACTGGATC | -0.132
ATACTGCA | 0.132
CAGATCAG | 0.0606
CGCCACTC | 0.0215
AGGGGTGA | -0.397
CAAACGGG | -0.0368
CCGCAGCG | -0.0184
GAACCGTA | -0.052
GCGTAAAC | 0.264
CTCGCTGA | -0.0846
ATAAAACG | 0.196
ACTTTGGC | -0.0903
ACTATCGA | -0.203
GGCACAAC | 0.0428
CAAAGGTA | -0.0249
TGTTCCAA | 0.0502
CCTCACAC | -0.203
ACTACTGC | -0.153
CGAGCTCC | 0.0493
GTTCCTAA | 0.195
ACATTGAC | -0.0746
CCAACTCA | -0.00172

Sequence | PBM E-score
GCATGAGA | -0.166
CACATCTA | 0.0649
GTACCCAA | -0.211
GACTAGTC | -0.0673
AGTATACC | 0.0505
CAGAACCC | -0.0324
CTGCCCTC | -0.357
GCGACCAC | 0.00486
AGAACCGA | 0.095
AATCCGAA | 0.0989
GCATTTCA | 0.0231
AGGCGACA | -0.138
ATACATTA | 0.162
GATATGGA | 0.146
AGGTTCGG | 0.173
ATCCGTGG | 0.13
AAGCTGGC | -0.105
CAGGGAAA | 0.0066
AATGTCCC | -0.162
AGACCGGC | 0.128
ACGTTCGC | -0.16
TATGGACA | 0.0399
